Laboratory results reported in publication doi:10.1101/2024.04.19.590210.
Results are given in words; binding and its absence hold for the method and conditions named. For some of these results: Binding seen in cells or lysates may run through a third protein. Some results given as binding are weak or reduced against the parent protein; the word gives no strength.

By UniProt entry, the sequences of proteins in these tests, tags left out.
UniProt Q39057: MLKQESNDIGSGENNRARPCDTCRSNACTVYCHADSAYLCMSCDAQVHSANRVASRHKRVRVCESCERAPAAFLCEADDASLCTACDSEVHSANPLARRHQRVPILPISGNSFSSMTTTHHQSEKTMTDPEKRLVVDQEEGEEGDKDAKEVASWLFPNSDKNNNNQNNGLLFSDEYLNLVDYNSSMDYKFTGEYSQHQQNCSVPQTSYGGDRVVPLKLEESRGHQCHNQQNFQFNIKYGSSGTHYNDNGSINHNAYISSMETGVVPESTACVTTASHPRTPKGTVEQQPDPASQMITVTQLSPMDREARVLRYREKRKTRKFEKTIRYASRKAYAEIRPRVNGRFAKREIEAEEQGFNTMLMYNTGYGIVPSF
UniProt Q9SXZ2: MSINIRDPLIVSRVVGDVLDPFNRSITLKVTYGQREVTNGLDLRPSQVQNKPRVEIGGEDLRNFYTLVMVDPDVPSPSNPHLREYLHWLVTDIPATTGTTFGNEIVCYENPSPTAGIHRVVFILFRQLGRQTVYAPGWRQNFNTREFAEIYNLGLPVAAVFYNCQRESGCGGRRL
UniProt Q9C7E8: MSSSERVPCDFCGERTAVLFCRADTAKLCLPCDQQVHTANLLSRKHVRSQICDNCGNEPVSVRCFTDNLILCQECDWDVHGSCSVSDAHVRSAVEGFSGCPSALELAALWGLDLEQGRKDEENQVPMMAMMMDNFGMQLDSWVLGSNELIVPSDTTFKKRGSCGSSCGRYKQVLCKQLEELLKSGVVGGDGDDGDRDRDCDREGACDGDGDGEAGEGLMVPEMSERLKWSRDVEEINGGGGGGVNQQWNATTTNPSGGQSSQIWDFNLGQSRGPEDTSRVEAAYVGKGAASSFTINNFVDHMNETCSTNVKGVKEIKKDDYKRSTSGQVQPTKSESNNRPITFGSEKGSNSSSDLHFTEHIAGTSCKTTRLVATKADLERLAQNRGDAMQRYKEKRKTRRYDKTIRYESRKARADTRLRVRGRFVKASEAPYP

Assays:
[1] = target: CO fused to the GAL4 binding domain (Arabidopsis thaliana) (UniProt Q39057); experiment: two-hybrid
[2] = target: cYFP-CO (Arabidopsis thaliana) (UniProt Q39057); experiment: split reporter
[3] = target: FT, yeast two-hybrid fusion (Arabidopsis thaliana) (UniProt Q9SXZ2); experiment: two-hybrid

Row | Substance | binding [2] | further results
1 | BBX13 fused to the GAL4 activation domain (from UniProt Q9C7E8 1-433) | – | binding [1]: binds
2 | nYFP-BBX13 (from UniProt Q9C7E8 1-433) | binds | –
3 | FT in pCL112 (nYFP fusion) (from UniProt Q9SXZ2 1-175) | no binding | –
4 | BBX13, yeast two-hybrid fusion tested against FT (Figure S4) (from UniProt Q9C7E8 1-433) | – | binding [3]: no binding
